Taken from: PubChem BioAssay AID1259308 (NCATS, 2017)
In all, the deposit lists about 59,000 reagents; this is a part drawn at random. In the full data, about 1,510 (2.6%) are marked active. 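Calls use total luciferase alone and ignore viability, so some active siRNAs may act by altering cell number.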 Reagents against one gene are numbered here. No sequences are given here.

Test: 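Candidate targets for better recombinant protein yield in mammalian cells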 (primary screen)
System: human HEK293 embryonic kidney cells stably expressing firefly luciferase (HEK-CMV-Luc2-Hygro)
Reagents: single siRNA against human genes, 0.8 pmol siRNA per well
Time to read-out: 72 h
Measured: 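Reporter luminescence and viable-cell signal on separate replicate plates, given as percent of non-targeting control and median/MAD z-scores, plus per-cell luciferase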
Scale: total luciferase, z-score and total luciferase, % of control: higher = more reporter protein produced; luciferase per cell, z-score: higher = more reporter output per viable cell; viable cells, % of control: higher = more viable cells
Hit rule: 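Active when the median/MAD z-score for overall luciferase is greater than 3; a gene was taken forward for validation with new siRNAs if at least two of its three siRNAs passed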
Calls: active = raised luciferase; inactive = no rise

Gene | reagent | total luciferase, z-score | total luciferase, % of control | luciferase per cell, z-score | viable cells, % of control | activity call
ARHGAP11A (Rho GTPase activating protein 11A) | 1 | -2.35 | 35.1 | -0.722 | 47.5 | inactive
ARHGAP11A (Rho GTPase activating protein 11A) | 2 | -0.0911 | 80.1 | -0.151 | 93.1 | inactive
ARHGAP11A (Rho GTPase activating protein 11A) | 3 | -0.0889 | 80.1 | 0.404 | 80.5 | inactive
DENND5A (DENN domain containing 5A) | 1 | -0.29 | 76.1 | 0.405 | 76.4 | inactive
DENND5A (DENN domain containing 5A) | 2 | 0.298 | 87.8 | 0.128 | 94.9 | inactive
DENND5A (DENN domain containing 5A) | 3 | 1.18 | 105 | 1.38 | 82 | inactive
ARAP3 (ArfGAP with RhoGAP domain, ankyrin repeat and PH domain 3) | 1 | -0.257 | 76.8 | -0.167 | 89.6 | inactive
ARAP3 (ArfGAP with RhoGAP domain, ankyrin repeat and PH domain 3) | 2 | 0.586 | 93.5 | 0.0726 | 103 | inactive
ARAP3 (ArfGAP with RhoGAP domain, ankyrin repeat and PH domain 3) | 3 | -0.0793 | 80.3 | -0.416 | 100 | inactive
SCAMP1 | 1 | 0.741 | 96.6 | 0.0746 | 106 | inactive
SCAMP1 | 2 | 0.242 | 86.7 | 0.0195 | 96.4 | inactive
SCAMP1 | 3 | 0.79 | 97.6 | -0.181 | 114 | inactive
TRIP6 (thyroid hormone receptor interactor 6) | 1 | 4.34 | 168 | 2.72 | 91.8 | active
TRIP6 (thyroid hormone receptor interactor 6) | 2 | 0.788 | 97.6 | 0.252 | 102 | inactive
TRIP6 (thyroid hormone receptor interactor 6) | 3 | -1.02 | 61.6 | -0.912 | 87.5 | inactive
RAB13 (RAB13, member RAS oncogene family) | 1 | 0.571 | 93.2 | 0.822 | 83.9 | inactive
RAB13 (RAB13, member RAS oncogene family) | 2 | -0.407 | 73.8 | -0.525 | 94.7 | inactive
RAB13 (RAB13, member RAS oncogene family) | 3 | -0.839 | 65.2 | -0.938 | 93.3 | inactive
SSC4D | 1 | -1.58 | 50.4 | -1.42 | 81.8 | inactive
SSC4D | 2 | -0.0167 | 81.6 | 0.117 | 88.4 | inactive
SSC4D | 3 | -1.23 | 57.3 | -1.02 | 83.9 | inactive
CDKL3 (cyclin dependent kinase like 3) | 1 | -0.677 | 68.4 | -1.16 | 104 | inactive
CDKL3 (cyclin dependent kinase like 3) | 2 | 0.203 | 85.9 | 0.69 | 80.1 | inactive
CDKL3 (cyclin dependent kinase like 3) | 3 | 0.622 | 94.2 | 0.275 | 98 | inactive
DOT1L (DOT1 like histone lysine methyltransferase) | 1 | -0.801 | 66 | -0.287 | 79.5 | inactive
DOT1L (DOT1 like histone lysine methyltransferase) | 2 | -0.723 | 67.5 | -1.23 | 104 | inactive
DOT1L (DOT1 like histone lysine methyltransferase) | 3 | -2.53 | 31.5 | -4.04 | 102 | inactive
ASPRV1 (aspartic peptidase retroviral like 1) | 1 | 0.476 | 91.4 | 2.51 | 52.8 | inactive
ASPRV1 (aspartic peptidase retroviral like 1) | 2 | 1.15 | 105 | 0.911 | 92.2 | inactive
ASPRV1 (aspartic peptidase retroviral like 1) | 3 | 1.77 | 117 | 1.17 | 96.2 | inactive
PIMREG (PICALM interacting mitotic regulator) | 1 | 0.284 | 87.5 | -0.566 | 114 | inactive
PIMREG (PICALM interacting mitotic regulator) | 2 | 0.722 | 96.2 | 1.04 | 81.8 | inactive
PIMREG (PICALM interacting mitotic regulator) | 3 | 0.153 | 84.9 | -0.41 | 106 | inactive
F8A2 (coagulation factor VIII associated 2) | 1 | -0.387 | 74.2 | -0.374 | 91.5 | inactive
F8A2 (coagulation factor VIII associated 2) | 2 | 0.0939 | 83.8 | 0.0448 | 92.5 | inactive
F8A2 (coagulation factor VIII associated 2) | 3 | -0.173 | 78.4 | 0.12 | 84.9 | inactive
SYNPO2 (synaptopodin 2) | 1 | 0.223 | 86.3 | 0.496 | 84.7 | inactive
SYNPO2 (synaptopodin 2) | 2 | -0.163 | 78.6 | -0.352 | 96.4 | inactive
SYNPO2 (synaptopodin 2) | 3 | 1.78 | 117 | 0.872 | 104 | inactive
CARD14 (caspase recruitment domain family member 14) | 1 | 0.861 | 99 | 1.61 | 72.4 | inactive
CARD14 (caspase recruitment domain family member 14) | 2 | 0.895 | 99.7 | 0.538 | 96.7 | inactive
CARD14 (caspase recruitment domain family member 14) | 3 | -0.262 | 76.7 | 0.959 | 66.6 | inactive
EFHC1 (EF-hand domain containing 1) | 1 | -0.248 | 76.9 | 0.274 | 80 | inactive
EFHC1 (EF-hand domain containing 1) | 2 | 0.00467 | 82 | -0.602 | 107 | inactive
EFHC1 (EF-hand domain containing 1) | 3 | 0.671 | 95.2 | 0.25 | 99.7 | inactive
RIPK1 (receptor interacting serine/threonine kinase 1) | 1 | -0.353 | 74.9 | -0.636 | 98.9 | inactive
RIPK1 (receptor interacting serine/threonine kinase 1) | 2 | 0.337 | 88.6 | 0.33 | 90.8 | inactive
RIPK1 (receptor interacting serine/threonine kinase 1) | 3 | -0.783 | 66.3 | 0.667 | 62.2 | inactive
COPS9 (COP9 signalosome subunit 9) | 1 | 0.447 | 90.8 | 1.26 | 72.8 | inactive
COPS9 (COP9 signalosome subunit 9) | 2 | -2.48 | 32.5 | -2.19 | 64.7 | inactive
COPS9 (COP9 signalosome subunit 9) | 3 | 3.67 | 155 | 2.13 | 98.8 | active
SHISA9 (shisa family member 9) | 1 | -1.13 | 59.5 | -0.305 | 72 | inactive
SHISA9 (shisa family member 9) | 2 | -0.0967 | 80 | 0.258 | 83.5 | inactive
SHISA9 (shisa family member 9) | 3 | 1.47 | 111 | 0.757 | 102 | inactive
SHISA9 (shisa family member 9) | 4 | 0.635 | 94.5 | -0.163 | 110 | inactive
SHISA9 (shisa family member 9) | 5 | 0.163 | 85.1 | -0.124 | 98.3 | inactive
SHISA9 (shisa family member 9) | 6 | 2.02 | 122 | 2.46 | 71.3 | inactive
EIF5A (eukaryotic translation initiation factor 5A) | 1 | -1.25 | 57 | -1.72 | 100 | inactive
EIF5A (eukaryotic translation initiation factor 5A) | 2 | 1.35 | 109 | 0.602 | 104 | inactive
EIF5A (eukaryotic translation initiation factor 5A) | 3 | 0.21 | 86.1 | -0.231 | 102 | inactive
OR2F2 (olfactory receptor family 2 subfamily F member 2) | 1 | 0.197 | 85.8 | -0.707 | 115 | inactive
OR2F2 (olfactory receptor family 2 subfamily F member 2) | 2 | 0.821 | 98.2 | 0.481 | 96.7 | inactive
OR2F2 (olfactory receptor family 2 subfamily F member 2) | 3 | -0.0585 | 80.7 | 0.0803 | 88.3 | inactive
DUSP28 (dual specificity phosphatase 28) | 1 | -0.0696 | 80.5 | -0.364 | 99 | inactive
DUSP28 (dual specificity phosphatase 28) | 2 | 0.145 | 84.8 | 0.37 | 85.9 | inactive
DUSP28 (dual specificity phosphatase 28) | 3 | -0.744 | 67.1 | -0.791 | 92.3 | inactive
COL6A4P2 (collagen type VI alpha 4 pseudogene 2) | 1 | 0.797 | 97.7 | 0.626 | 92.6 | inactive
COL6A4P2 (collagen type VI alpha 4 pseudogene 2) | 2 | -0.146 | 79 | 0.0311 | 87.5 | inactive
COL6A4P2 (collagen type VI alpha 4 pseudogene 2) | 3 | -1.59 | 50.3 | -2.16 | 99.1 | inactive
ABHD6 (abhydrolase domain containing 6, acylglycerol lipase) | 1 | -0.386 | 74.2 | -0.493 | 94.4 | inactive
ABHD6 (abhydrolase domain containing 6, acylglycerol lipase) | 2 | 0.627 | 94.4 | 0.0538 | 104 | inactive
ABHD6 (abhydrolase domain containing 6, acylglycerol lipase) | 3 | -1.16 | 58.9 | -1.34 | 93.6 | inactive
POT1 (protection of telomeres 1) | 1 | 0.0221 | 82.3 | -0.288 | 99.2 | inactive
POT1 (protection of telomeres 1) | 2 | -0.397 | 74 | -0.937 | 106 | inactive
POT1 (protection of telomeres 1) | 3 | 0.315 | 88.1 | -0.301 | 107 | inactive

Single entries from above.
Value of ASPRV1 (aspartic peptidase retroviral like 1) #3 under “luciferase per cell, z-score”: 1.17
ARHGAP11A (Rho GTPase activating protein 11A) #1, total luciferase, z-score = -2.35
Entry of POT1 (protection of telomeres 1) #3 in “viable cells, % of control”: 107
Under “total luciferase, % of control”, CDKL3 (cyclin dependent kinase like 3) #2 shows 85.9
Value for SHISA9 (shisa family member 9) #1 under “total luciferase, z-score”: -1.13
Under “total luciferase, z-score”, ASPRV1 (aspartic peptidase retroviral like 1) #2 shows 1.15
